Measurements taken from patent US20180155693A1, “Method of Differentiating Stem Cells” (BioTime, Inc., priority 2008, published 2018).
Some entries share one result that the patent states for a list of compounds. For at least one compound, name, drawing or mass did not settle the structure.

System: human embryonic stem cells
Test: Notch signaling inhibition, C-peptide positive cells by immunohistochemistry
Type: cell-based
Conditions: added day 9-18 of differentiation; cells fixed at day 21; FIG. 7
Method: In order to increase the percentage of Pdx-1 and C-peptide producing cells, the cells from Example 1 were rinsed twice with PBS and then cultured in a culture medium (2% 8-27, 1×Glutamax, 1×NEAA, 1×13-mercaptoethanol in RPMI 1640 (RPMI)) comprising 50 ng/ml Activin A and 50 ng/ml BMP4 for 3 days. The medium was then changed to a medium comprising 50 ng/ml Activin A in RPMI and incubated for 3 days. The cells were then cultured in a medium comprising 3 μM RA, 50 ng/ml FGF2, 1 μM SANT-1 and 10 mM Nicotinamide in RPMI for 6 days with the medium changed every 2-3 days. Notch signaling in the cells was then inhibited by the addition of Gamma Secretase Inhibitor X (DAPT) from day 9-18 of differentiation.
Plate-based immunohistochemistry was performed using standard techniques. Cells were fixed in 4% PFA in PBS for 30 min, washed with PBS and incubated in blocking solution consisting of 10% FCS and 0.1% Triton X-100 in PBS for 1 hr. Cells were incubated overnight at 4 ° C. with the primary antibody diluted in blocking solution. Examples of primary antibodies and their dilutions used include: guinea pig anti-Pdx-1 (1:10,000), rabbit anti-C-peptide (Linea, 1:1,000), goat anti-Sox17 (R & D systems, 1:100), goat anti-FoxA2 (R & D systems 1:100) and mouse anti-Oct4 (Santacruz, 1:100). […]

C[C@H](NC(=O)Cc1cc(F)cc(F)c1)C(=O)N[C@H](C(=O)OC(C)(C)C)c1ccccc1 [DAPT]
Concentration resulting in a significant number of C-peptide positive cells: over 10 μM
